Experimental data as given in paper PMC12124388, “High-affinity PQQ import is widespread in Gram-negative bacteria” (Science Advances, 2025).
Results are given in words; binding and its absence hold for the method and conditions named.

Molecular target: PqqU (TonB-dependent transporter, formerly YncD) from Escherichia coli (E. coli) (UniProt P76115)
Assay: cryo-EM structure; 43 μM PqqU (3.3 mg/ml) in an LMNG micelle, excess detergent removed, with 910 μM PQQ; single-particle reconstruction at 1.99 Å; both purified

- binding: no binding (tested: 43 μM)
B1: PqqU (TonB-dependent transporter, formerly YncD) from Escherichia coli (protein, UniProt P76115 24-700)
chain: ADEQTMIVSAAPQVVSELDTPAAVSVVDGEEMRLATPRINLSESLTGVPGLQVQNRQNYAQDLQLSIRGFGSRSTYGIRGIRLYVDGIPATMPDGQGQTSNIDLSSVQNVEVLRGPFSALYGNASGGVMNVTTQTGQQPPTIEASSYYGSFGSWRYGLKATGATGDGTQPGDVDYTVSTTRFTTHGYRDHSGAQKNLANAKLGVRIDEASKLSLIFNSVDIKADDPGGLTKAEWKANPQQAPRAEQYDTRKTIKQTQAGLRYERSLSSRDDMSVMMYAGERETTQYQSIPMAPQLNPSHAGGVITLQRHYQGIDSRWTHRGELGVPVTFTTGLNYENMSENRKGYNNFRLNSGMPEYGQKGELRRDERNLMWNIDPYLQTQWQLSEKLSLDAGVRYSSVWFDSNDHYVTPGNGDDSGDASYHKWLPAGSLKYAMTDAWNIYLAAGRGFETPTINELSYRADGQSGMNLGLKPSTNDTIEIGSKTRIGDGLLSLALFQTDTDDEIVVDSSSGGRTTYKNAGKTRRQGAELAWDQRFAGDFRVNASWTWLDATYRSNVCNEQDCNGNRMPGIARNMGFASIGYVPEDGWYAGTEARYMGDIMADDENTAKAPSYTLVGLFTGYKYNYHNLTVDLFGRVDNLFDKEYVGSVIVNESNGRYYEPSPGRNYGVGMNIAWRFE
